Literature values as cited in patent US11786515B2, “Anesthetic mixtures formulations for local anesthesia, at very low concentration, to be used cold with suitable packaging” (L. MOLTENI & C. DEI FRATELLI ALITTI-SOCIETA′ DI ESERCIZIO …, priority 2018, dated 2023).
Where a name gives a salt, the structure may show the parent alone.

Settings: cited from earlier work

CCN(CC)CC(=O)Nc1c(C)cccc1C [Lidocaine, Lidocaine hydrochloride]
toxic dose, total not to be exceeded (if used alone): ≤ 300 mg | dosage usable without risk of toxic response (molecule in a cold and diluted solution): higher than 1 gram
